# Data published in the supplement of paper PMC4604168 (melanoma cell lines).
# This is one part of the list. Many values rest on one well or one pass, so single values are uncertain.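 The apoptosis fraction was the count of cleaved-PARP antibody-stained nuclei relative to all DNA-stained nuclei, imaged in 1,536-well plates. Screening doses were set so most cells survived, and baseline and induced cleaved-PARP levels vary greatly across cell lines.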
# Test system: COLO792
# Test: cleaved PARP positive nuclei fraction relative to DMSO control; melanoma cells; higher = more apoptosis
# Settings: library dose: low library concentration; 72 h
row,Compound,cleaved PARP positive nuclei fraction [%]
1,"O=C(Nc1cc(C(F)(F)F)cc(C(F)(F)F)c1)c1cc(Cl)ccc1O + C[C@]1(c2nc3c(C(N)=O)cccc3[nH]2)CCCN1 [Veliparib] (first compound 0.016 µM, partner dose 1.4 µM)",119
2,"O=C(Nc1cc(C(F)(F)F)cc(C(F)(F)F)c1)c1cc(Cl)ccc1O + Nc1ncn([C@H]2C[C@H](O)[C@@H](CO)O2)c(=O)n1 [decitabine] (first compound 0.016 µM, partner dose 0.1 µM)",37.1
3,"CC[C@]1(O)C[C@H]2CN(CCc3c([nH]c4ccccc34)[C@@](C(=O)OC)(c3cc4c(cc3OC)N(C=O)[C@H]3[C@@](O)(C(=O)OC)[C@H](OC(C)=O)[C@]5(CC)C=CCN6CC[C@]43[C@@H]65)C2)C1 [vincristine] + Cn1c(Nc2ccc(C(F)(F)F)cc2)nc2cc(Oc3ccnc(-c4ncc(C(F)(F)F)[nH]4)c3)ccc21 [CHIR265] (first compound 0.0001 µM, partner dose 0.08 µM)",126
4,"Cc1cc(Nc2cc(N3CCN(C)CC3)nc(Sc3ccc(NC(=O)C4CC4)cc3)n2)n[nH]1 [Tozasertib] + N#CC[C@H](C1CCCC1)n1cc(-c2ncnc3[nH]ccc23)cn1 [ruxolitinib] (first compound 0.006 µM, partner dose 1 µM)",100
5,"CC[C@]1(O)C[C@H]2CN(CCc3c([nH]c4ccccc34)[C@@](C(=O)OC)(c3cc4c(cc3OC)N(C=O)[C@H]3[C@@](O)(C(=O)OC)[C@H](OC(C)=O)[C@]5(CC)C=CCN6CC[C@]43[C@@H]65)C2)C1 [vincristine] + C=C(c1ccc(C(=O)O)cc1)c1cc2c(cc1C)C(C)(C)CCC2(C)C [Bexarotene] (first compound 0.0001 µM, partner dose 2 µM)",144
6,"O=C(/C=C/c1cccnc1)NCCCCC1CCN(C(=O)c2ccccc2)CC1 + C#Cc1cccc(Nc2ncnc3cc(OCCOC)c(OCCOC)cc23)c1 [erlotinib] (first compound 0.01 µM, partner dose 0.8 µM)",452
7,"Cc1cn(-c2cc(NC(=O)c3ccc(C)c(Nc4nccc(-c5cccnc5)n4)c3)cc(C(F)(F)F)c2)cn1 [nilotinib] + CO[C@H]1C[C@@H]2CC[C@@H](C)[C@@](O)(O2)C(=O)C(=O)N2CCCC[C@H]2C(=O)O[C@H]([C@H](C)C[C@@H]2CC[C@@H](OCCO)[C@H](OC)C2)CC(=O)[C@H](C)/C=C(\C)[C@@H](O)[C@@H](OC)C(=O)[C@H](C)C[C@H](C)/C=C/C=C/C=C/1C [everolimus] (first compound 0.2 µM, partner dose 0.02 µM)",120
8,"O=C(Nc1cc(C(F)(F)F)cc(C(F)(F)F)c1)c1cc(Cl)ccc1O + Cn1c(Nc2ccc(C(F)(F)F)cc2)nc2cc(Oc3ccnc(-c4ncc(C(F)(F)F)[nH]4)c3)ccc21 [CHIR265] (first compound 0.016 µM, partner dose 0.08 µM)",233
9,"O=c1[nH]nc(Sc2ncc([N+](=O)[O-])s2)n1-c1ccc2c(c1)OCCO2 + OCc1c[nH]c2ccccc12 [Indole-3-carbinol] (first compound 0.2 µM, partner dose 0.8 µM)",129
10,"O=C(/C=C/c1cccnc1)NCCCCC1CCN(C(=O)c2ccccc2)CC1 + CO[C@H]1C[C@@H]2CC[C@@H](C)[C@@](O)(O2)C(=O)C(=O)N2CCCC[C@H]2C(=O)O[C@H]([C@H](C)C[C@@H]2CC[C@@H](OCCO)[C@H](OC)C2)CC(=O)[C@H](C)/C=C(\C)[C@@H](O)[C@@H](OC)C(=O)[C@H](C)C[C@H](C)/C=C/C=C/C=C/1C [everolimus] (first compound 0.01 µM, partner dose 0.02 µM)",215
11,"O=c1[nH]nc(Sc2ncc([N+](=O)[O-])s2)n1-c1ccc2c(c1)OCCO2 + CS(=O)(=O)CCNCc1ccc(-c2ccc3ncnc(Nc4ccc(OCc5cccc(F)c5)c(Cl)c4)c3c2)o1 [lapatinib] (first compound 0.2 µM, partner dose 0.8 µM)",136
12,"COc1cc([C@@H]2c3cc4c(cc3[C@@H](O[C@@H]3O[C@@H]5CO[C@@H](C)O[C@H]5[C@H](O)[C@H]3O)[C@H]3COC(=O)[C@H]23)OCO4)cc(OC)c1O [etoposide] + CO[C@H]1C[C@@H]2CC[C@@H](C)[C@@](O)(O2)C(=O)C(=O)N2CCCC[C@H]2C(=O)O[C@H]([C@H](C)C[C@@H]2CC[C@@H](OCCO)[C@H](OC)C2)CC(=O)[C@H](C)/C=C(\C)[C@@H](O)[C@@H](OC)C(=O)[C@H](C)C[C@H](C)/C=C/C=C/C=C/1C [everolimus] (first compound 0.02 µM, partner dose 0.02 µM)",177
13,"Cc1cn(-c2cc(NC(=O)c3ccc(C)c(Nc4nccc(-c5cccnc5)n4)c3)cc(C(F)(F)F)c2)cn1 [nilotinib] + Nc1cccc2c1CN(C1CCC(=O)NC1=O)C2=O [lenalidomide] (first compound 0.2 µM, partner dose 1 µM)",206
14,"Cc1ccc(Nc2nccc(N(C)c3ccc4c(C)n(C)nc4c3)n2)cc1S(N)(=O)=O [Pazopanib] + CNC(=O)c1cc(Oc2ccc(NC(=O)Nc3ccc(Cl)c(C(F)(F)F)c3)cc2)ccn1 [sorafenib] (first compound 0.4 µM, partner dose 0.4 µM)",36.6
15,"O=c1[nH]nc(Sc2ncc([N+](=O)[O-])s2)n1-c1ccc2c(c1)OCCO2 + CS(=O)(=O)c1ccc(C(=O)Nc2ccc(Cl)c(-c3ccccn3)c2)c(Cl)c1 [vismodegib] (first compound 0.2 µM, partner dose 1 µM)",70.2

# Reformatted: results already given.
row | Compound | cleaved PARP positive nuclei fraction [%]
3 | CC[C@]1(O)C[C@H]2CN(CCc3c([nH]c4ccccc34)[C@@](C(=O)OC)(c3cc4c(cc3OC)N(C=O)[C@H]3[C@@](O)(C(=O)OC)[C@H](OC(C)=O)[C@]5(CC)C=CCN6CC[C@]43[C@@H]65)C2)C1 [vincristine] + Cn1c(Nc2ccc(C(F)(F)F)cc2)nc2cc(Oc3ccnc(-c4ncc(C(F)(F)F)[nH]4)c3)ccc21 [CHIR265] (first compound 0.0001 µM, partner dose 0.08 µM) | 126
4 | Cc1cc(Nc2cc(N3CCN(C)CC3)nc(Sc3ccc(NC(=O)C4CC4)cc3)n2)n[nH]1 [Tozasertib] + N#CC[C@H](C1CCCC1)n1cc(-c2ncnc3[nH]ccc23)cn1 [ruxolitinib] (first compound 0.006 µM, partner dose 1 µM) | 100
